Where a name gives a salt, the structure may show the parent alone.
Key:
[1] = tested on: Ebola trVLP replication; experiment: microbe, parasite or virus in culture; format: cell-based, Ebola virus (EBOV); conditions: for EC50: Zaire ebolavirus, HEK-293T
[2] = in vitro; conditions: human

SMILES	SI (selectivity index, ratio of CC50 to EC50) [1]	EC50 [1] [nM]	CC50 [2] [nM]
CN1[C@@H]2CC[C@H]1C[C@@H](OC(c1ccccc1)c1ccccc1)C2 [Benztropine mesylate]	> 10.9	3100 ± 1400	–
CN1CCC[C@@H]1CCO[C@](C)(c1ccccc1)c1ccc(Cl)cc1 [Clemastine fumarate]	> 10.2	3000 ± 500	> 30000
CN(C)C(=O)C(CCN1CCC(O)(c2ccc(Cl)cc2)CC1)(c1ccccc1)c1ccccc1 [Loperamide]	> 18.6	2000 ± 1300	–
CNCCCC12CCC(c3ccccc31)c1ccccc12 [Maprotiline]	26.9 ± 18.1	1200 ± 700	–

— article PMC7118351 (BMB Reports, 2020)
